# Some of the results follow. These are further read-outs of the screen, such as a control signal, another cell line or another target. No call is given for them. Most of these compounds were active or inconclusive in the main read-out, so they are no random draw. Potencies come from curve fits of mixed quality, noted in brackets.
# Test: qHTS Assay to Find Inhibitors of Chronic Active B-Cell Receptor Signaling
# Settings: ABC-DLBCL IkBa-CBG/CBR reporter, luminescence ratio (green luciferase fused to IkBa over red control in TMD8 lymphoma cells), 4 h
# Method in brief: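 Compounds up to 46 uM were incubated four hours with TMD8 cells whose green CBG68 luciferase is fused to IkappaBalpha; red CBR luminescence normalised the signal, and concentration-effect curves were fitted to fusion, red and ratio data.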
# [1] = measured here: CBR red luminescence, cell number
# [2] = measured here: IkBa-CBG green luminescence
smiles,measurement,setting,value
CCOC(=O)N1CCC(NC(=O)c2cc(C(=O)Nc3ccc(OC)c(OC)c3)ccc2CO)CC1,AC50,[1],"2.82 µM [rising, single point]"
CN(C)CC(=O)c1c[nH]c2ccccc12,AC50,[1],"7.94 µM [falling, partial curve, poor fit]"
O=C(CCc1ccccc1)NNc1ccc(F)cc1,AC50,[1],"0.631 µM [rising, full curve, poor fit]"
CCCn1cnc2cc(NCc3ccccn3)ccc21,AC50,[1],"12.6 µM [falling, partial curve]"
Cc1ccc(NC(=O)CCC(=O)N/N=C/c2ccccc2O)cc1,AC50,[1],"12.6 µM [rising, single point]"
C=CCNc1nc2ccccc2nc1NS(=O)(=O)c1cccs1,AC50,[1],"32.6 µM [rising, single point]"
COCCN1CCc2c(C)nc3c(-c4ccc(OC)c(OC)c4)cnn3c21,AC50,[1],"14.1 µM [rising, partial curve, poor fit]"
CCCCn1c(N)c(N(CC)C(=O)c2ccc(-c3ccc(Cl)cc3)o2)c(=O)[nH]c1=O,AC50,[1],"0.82 µM [rising, partial curve]"
Cc1cccc(C(=O)NCCCNC(=O)c2ccccn2)c1,AC50,[1],"0.562 µM [rising, partial curve, poor fit]"
CCN(C(=O)COC(=O)c1ccc(Cl)c(S(=O)(=O)N2CCCCC2)c1)C1CCS(=O)(=O)C1 (configuration not stated),AC50,[1],"0.517 µM [falling, full curve]"
Cc1csc(NC(=O)c2ccccc2)n1,AC50,[2],"3.98 µM [rising, partial curve, poor fit]"
Cc1nc2nc(SCc3c(F)cccc3Cl)nn2c(C)c1Cc1ccccc1,AC50,[1],"14.1 µM [rising, single point]"
CC(C)(C)c1ccc(C(=O)NCCC(=O)N2CCN(c3ncccn3)CC2)cc1,AC50,[1],"29.1 µM [falling, partial curve, poor fit]"
C/C(N)=C(/C#N)C(=O)COc1ccc(Cl)cc1Cl,AC50,[1],"11.2 µM [rising, partial curve, poor fit]"
COC(=O)c1cc(=O)n(-c2c(Cl)cc(C(F)(F)F)cc2Cl)[nH]1,AC50,[1],"20 µM [falling, single point]"
Oc1[nH]c2ccccc2c1N=Nc1nncc2ccccc12,AC50,[1],"0.282 µM [falling, full curve, poor fit]"
CCN(CC)C(=O)C(=O)Nc1ccc(F)c(Cl)c1,AC50,[1],"14.1 µM [falling, single point]"
CCc1c(C)sc(NC(=S)N2CCN(S(C)(=O)=O)CC2)c1C(=O)OC,AC50,[1],"7.08 µM [rising, partial curve, poor fit]"
CN1C(C(=O)Nc2ccccn2)=C(O)c2ccccc2S1(=O)=O,AC50,[1],"12.6 µM [falling, partial curve]"
Cc1ccc(-c2c[n+](Cc3ccc(Cl)c(Cl)c3)c3n2CCC3)cc1,AC50,[1],"29.1 µM [falling, single point]"
O=C(Nc1nc2ccccc2[nH]1)NC1CCCCC1,AC50,[1],"7.94 µM [falling, partial curve, poor fit]"
C/C=C(\C)C(=O)OC1CC(C)(C)C[C@H]2C3=CC[C@@H]4[C@@]5(C)CCC(O[C@@H]6O[C@@H](C(=O)O)[C@@H](O)C(O[C@@H]7OC[C@H](O)[C@@H](O)[C@@H]7O[C@@H]7OC(CO)C(O)[C@@H](O)[C@@H]7O)C6O[C@@H]6OC(CO)C(O)C(O)C6O)[C@@](C)(CO)[C@@H]5CC[C@]4(C)[C@]3(C)CC(O)[C@@]12CO (some centres not stated),AC50,[1],"23.1 µM [rising, single point]"
OCCC1CN(Cc2cc3c(cc2Cl)OCO3)CCN1Cc1ccccc1 (configuration not stated),AC50,[1],"8.91 µM [falling, single point]"
O=C1C=C(c2ccc3c(c2)OCO3)C[C@@H](c2ccc(F)cc2)C1,AC50,[1],"3.26 µM [rising, full curve, poor fit]"
CNCC(O)Cn1c2c(c3ccccc31)CCCC2 (configuration not stated),AC50,[1],"17.8 µM [falling, single point]"
CCOC(=O)Cc1csc(NC(=O)CC)n1,AC50,[1],"17.8 µM [rising, partial curve, poor fit]"
NC(=O)c1cc(N2C(=O)C=CC2=O)ccc1Cl,AC50,[1],"22.4 µM [falling, single point]"
same,AC50,[2],"22.4 µM [rising, partial curve, poor fit]"
CS(=O)(=O)c1ccccc1C(=O)Nc1ccc(-c2nc3ccccc3[nH]2)cc1,AC50,[1],"10 µM [falling, partial curve]"
O=C(Cc1cccs1)NCCc1ccc(F)cc1,AC50,[1],"0.891 µM [rising, full curve, poor fit]"
C=CCNc1sc(C(=O)c2cccs2)c(N)c1C#N,AC50,[1],"3.26 µM [falling, partial curve, poor fit]"
COC(=O)c1cn(CC(=O)NCc2ccco2)c2ccccc12,AC50,[1],"0.00411 µM [falling, full curve, poor fit]"
Cc1nc(Nc2cccc(O)c2)c2oc3ccccc3c2n1,AC50,[1],"22.4 µM [falling, partial curve, poor fit]"
COc1ccc(N2CSC3=C(C#N)C(c4cccs4)CC(=O)N3C2)cc1 (configuration not stated),AC50,[1],"22.4 µM [rising, single point]"
same,AC50,[2],"35.5 µM [falling, single point]"
O=C(NNC(=S)Nc1ccccc1)Nc1ccccc1,AC50,[1],"4.47 µM [falling, partial curve]"
COc1ccccc1N(CC(=O)NCCSCc1cccc(C)c1)S(=O)(=O)c1ccccc1,AC50,[1],"25.1 µM [falling, single point]"
COc1ccc(CCN(C(=O)C(F)(F)F)C(C(=O)NC2CCCC2)c2cccs2)cc1OC (configuration not stated),AC50,[1],"4.61 µM [rising, full curve, poor fit]"
O=C(O)c1cc(Br)ccc1NN=C1CCCCC1,AC50,[1],"0.366 µM [falling, full curve, poor fit]"
COCCCNC(=S)NNC(=S)Nc1ccccc1,AC50,[1],"10 µM [falling, partial curve, poor fit]"
COc1ccc(-c2csc(C3=C(O)CN(CCCN4CCCC4=O)C3=N)n2)cc1OC,AC50,[1],"0.251 µM [rising, full curve, poor fit]"
same,AC50,[2],"14.1 µM [falling, partial curve]"

# Retrieved one by one from the entries so far (2):
smiles,measurement,setting,value
CN1C(C(=O)Nc2ccccn2)=C(O)c2ccccc2S1(=O)=O,AC50,[1],"12.6 µM [falling, partial curve]"
Cc1ccc(NC(=O)CCC(=O)N/N=C/c2ccccc2O)cc1,AC50,[1],"12.6 µM [rising, single point]"
